Experiment [1] deals with human GPR30 (endogenous) (human) (UniProt Q99527). Kind of experiment: co-immunoprecipitation from SKBR3 fractions with Gαs antibody, GPR30 immunoblot. A general note: A western blot detects proteins with antibodies after separation by electrophoresis.
For experiment [2] the target is unchanged. Kind of experiment: co-immunoprecipitation from SKBR3 fractions with Gαs antibody, GPR30 immunoblot; 17β-E2 treatment triggered uncoupling.

Protein sequences, listed by entry. Tags and fused reporters are not part of them. Lines headed by an entry give the natural chain unless they say otherwise; changes in a name come on top. Residues count along the entry.
UniProt Q99527: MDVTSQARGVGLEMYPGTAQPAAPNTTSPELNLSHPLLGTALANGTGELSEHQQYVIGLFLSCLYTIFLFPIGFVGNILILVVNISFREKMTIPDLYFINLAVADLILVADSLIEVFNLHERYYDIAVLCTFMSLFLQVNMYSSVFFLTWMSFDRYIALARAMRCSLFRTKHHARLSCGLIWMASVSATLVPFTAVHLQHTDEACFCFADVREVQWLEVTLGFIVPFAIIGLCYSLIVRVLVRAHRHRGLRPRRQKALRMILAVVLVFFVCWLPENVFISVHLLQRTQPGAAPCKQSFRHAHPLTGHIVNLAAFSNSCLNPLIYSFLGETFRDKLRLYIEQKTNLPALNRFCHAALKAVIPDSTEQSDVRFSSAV
UniProt P63092, residues 2-394: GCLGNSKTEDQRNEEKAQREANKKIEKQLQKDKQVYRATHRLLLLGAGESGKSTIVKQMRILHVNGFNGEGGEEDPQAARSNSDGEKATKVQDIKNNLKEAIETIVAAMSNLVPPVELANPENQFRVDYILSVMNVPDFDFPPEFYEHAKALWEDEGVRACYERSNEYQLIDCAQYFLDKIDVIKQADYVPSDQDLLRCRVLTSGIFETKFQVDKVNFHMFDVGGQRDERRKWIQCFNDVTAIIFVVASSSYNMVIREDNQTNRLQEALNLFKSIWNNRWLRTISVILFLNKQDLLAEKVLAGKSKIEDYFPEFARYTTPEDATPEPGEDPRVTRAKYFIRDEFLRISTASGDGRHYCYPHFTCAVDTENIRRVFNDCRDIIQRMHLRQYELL

No constants are given. Whether binding was seen depends on the method and setting. In cells and extracts the contact can be indirect. Some binding calls cover weakened binding; strength is not graded here.

On to “Gαs subunit protein (from UniProt P63092 2-394)”, for which the binding result in experiment [1] and in experiment [2] was “binds” throughout.

(Values after patent US20080131915A1.)
